Results taken from the supplement of paper PMC7752906.
Where a name gives a salt, the structure may show the parent alone. This is one part of the list. Single values are uncertain here, since repeats match poorly.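 Test system: Schistosoma mansoni schistosomula, roughly 40 per well, imaged in bright field over time and compared with wells given 0.1% DMSO. Distance read-out: the paper calls a drug a hit when its Mahalanobis distance is at least 2.47, three standard deviations above the DMSO control mean. Degeneracy is the share of worms classified opaque.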 Bridge positions count the residues as written; N and C are the ends. Square brackets hold non-standard residues; d marks the D form. Peptide text beside a SMILES is read from it. * marks the point of attachment. Ileψ(thiazoline)Cys = CC[C@H](C)[C@H](N)C1=N[C@H](C(=O)*)CS1; dOrn = NCCC[C@@H](N)C(=O)O

Tested on: Schistosoma mansoni schistosomula
Experiment: Mahalanobis distance of static-rate-frequency phenotype descriptors from DMSO controls (dimensionless); higher = stronger phenotypic change versus DMSO
Conditions: 10 µM; 72 h

Mahalanobis distance, active:
CC(C)Nc1cccnc1N1CCN(C(=O)c2cc3cc(NS(C)(=O)=O)ccc3[nH]2)CC1 [Delavirdine Mesylate] 4.04
Cc1onc(-c2ccccc2Cl)c1C(=O)N[C@@H]1C(=O)N2[C@@H]1SC(C)(C)[C@@H]2C(=O)O [Cloxacillin] 2.54
CN(C)CCC=C1c2ccccc2COc2ccccc21 [Doxepin] 3.33
CN(C)CCC=C1c2ccccc2COc2ccccc21 [Doxepin Hydrochloride] 3.81
CC(C)(CO)C(O)C(=O)NCCCO (stereo unspecified) [Panthenol] 2.49
C=C1/C(=C\C=C2/CCC[C@]3(C)[C@@H]([C@H](C)CCCC(C)C)CC[C@@H]23)C[C@@H](O)C[C@@H]1O [Alfacalcidol] 2.59
O=C(N[C@H](CO)[C@H](O)c1ccc([N+](=O)[O-])cc1)C(Cl)Cl [Chloramphenicol] 2.71
C[n+]1c2cc(N)ccc2cc2ccc(N)cc21 [Acriflavinium Hydrochloride] 3.61
CCN(CC)CCNC(=O)c1c(C)[nH]c(/C=C2\C(=O)Nc3ccc(F)cc32)c1C [Sunitinib Malate] 2.85
CC[C@]1(O)C[C@H]2CN(CCc3c([nH]c4ccccc34)[C@@](C(=O)OC)(c3cc4c(cc3OC)N(C=O)[C@H]3[C@@](O)(C(=O)OC)[C@H](OC(C)=O)[C@]5(CC)C=CCN6CC[C@]43[C@@H]65)C2)C1 [Vincristine] 2.67
O=C(OCC(O)CO)c1ccccc1Nc1ccnc2cc(Cl)ccc12 (stereo unspecified) [Glafenine] 3.01
C[C@H]1O[C@@H](O[C@H]2[C@@H](O)C[C@H](O[C@H]3[C@@H](O)C[C@H](O[C@H]4CC[C@@]5(C)[C@H](CC[C@@H]6[C@@H]5C[C@@H](O)[C@]5(C)[C@@H](C7=CC(=O)OC7)CC[C@]65O)C4)O[C@@H]3C)O[C@@H]2C)C[C@H](O)[C@@H]1O [Digoxin] 2.55
CCOC(=O)O[C@]1(C(=O)COC(=O)CC)CC[C@H]2[C@@H]3CCC4=CC(=O)C=C[C@]4(C)[C@H]3[C@@H](O)C[C@@]21C [Prednicarbate] 3.68
Oc1c(I)cc(Cl)c2cccnc12 [Clioquinol] 3.38

Copied from the listing for reference:
Mahalanobis distance, active:
C[C@H]1O[C@@H](O[C@H]2[C@@H](O)C[C@H](O[C@H]3[C@@H](O)C[C@H](O[C@H]4CC[C@@]5(C)[C@H](CC[C@@H]6[C@@H]5C[C@@H](O)[C@]5(C)[C@@H](C7=CC(=O)OC7)CC[C@]65O)C4)O[C@@H]3C)O[C@@H]2C)C[C@H](O)[C@@H]1O [Digoxin] 2.55
CCOC(=O)O[C@]1(C(=O)COC(=O)CC)CC[C@H]2[C@@H]3CCC4=CC(=O)C=C[C@]4(C)[C@H]3[C@@H](O)C[C@@]21C [Prednicarbate] 3.68

Following part.

Mahalanobis distance, inactive:
CC(=O)NC(Cc1ccccc1)C(=O)O (stereo unspecified) [Afalanine] 1.7
CCCCCCOC(=O)NC(=N)c1ccc(NCc2nc3cc(C(=O)N(CCC(=O)OCC)c4ccccn4)ccc3n2C)cc1 [Dabigatran Etexilate Mesylate] 1.76
NCCCC(=O)O [Gaba, Gamma-aminobutyric Acid] 1.77
CN[C@@H]1[C@H](O)[C@H](NC)[C@H]2O[C@@]3(O)C(=O)C[C@@H](C)O[C@H]3O[C@@H]2[C@H]1O [Spectinomycin] 2.34
NS(=O)(=O)c1cc2c(cc1Cl)NC(C(Cl)Cl)NS2(=O)=O (stereo unspecified) [Trichlormethiazide] 2.44
C#Cc1cccc(Nc2ncnc3cc(OCCOC)c(OCCOC)cc23)c1 [Erlotinib] 1.6
OCc1cccnc1 [Nicotinyl Alcohol Tartrate] 2.15
Cn1cnc2c1c(=O)[nH]c(=O)n2C [Theobromine] 1.39
CCOc1ccc2ccccc2c1C(=O)N[C@@H]1C(=O)N2[C@@H]1SC(C)(C)[C@@H]2C(=O)O [Nafcillin Sodium] 2.35
O=C(O)CCNC(=O)c1ccccc1 [Betamipron] 2.19
CCOC(=O)C1=C(COCCN)NC(C)=C(C(=O)OC)C1c1ccccc1Cl (stereo unspecified) [Amlodipine Besylate] 1.87
CCOC(=O)C1=C(COCCN)NC(C)=C(C(=O)OC)C1c1ccccc1Cl (stereo unspecified) [amlodipine] 2.05
Cc1c(N(C)C)c(=O)n(-c2ccccc2)n1C [Aminopyrine] 2.08
NC[C@@H]1O[C@H](O[C@H]2[C@@H](O)[C@H](O[C@@H]3[C@@H](O)[C@H](N)C[C@H](N)[C@H]3O[C@H]3O[C@H](CO)[C@@H](O)[C@H](O)[C@H]3N)O[C@@H]2CO)[C@H](N)[C@@H](O)[C@@H]1O [Paromomycin Sulfate] 2.03
Cc1cccc(C)c1OCC(C)N (stereo unspecified) [Mexiletine] 1.63
CN1[C@@H]2CC[C@H]1C[C@@H](OC(=O)c1c[nH]c3ccccc13)C2 [Tropisetron] 1.9
C[C@H](CCC(=O)O)[C@H]1CC[C@H]2[C@@H]3[C@H](O)C[C@@H]4C[C@H](O)CC[C@]4(C)[C@H]3C[C@H](O)[C@]12C [Cholic Acid] 1.56
Cc1c(OCC(F)(F)F)ccnc1C[S@@+]([O-])c1nc2ccccc2[nH]1 [Dexlansoprazole] 1.94
CO/N=C(\C(=O)N[C@@H]1C(=O)N2C(C(=O)O)=C(CSc3nnnn3C)CS[C@H]12)c1csc(N)n1 [Cefmenoxime Hydrochloride] 1.47
CN(C)C(=O)C(CCN1CCC(O)(c2ccc(Cl)cc2)CC1)(c1ccccc1)c1ccccc1 [Loperamide] 2.32
CC(C)(C)NCC(O)COc1cccc2c1CCC(=O)N2 (stereo unspecified) [Carteolol Hydrochloride] 1.95
COc1ccc2c(c1OC)C(=O)O[C@@H]2[C@H]1c2c(cc3c(c2OC)OCO3)CCN1C [Noscapine Hydrochloride] 2.16
O=C(C1CCCCC1)N1CC(=O)N2CCc3ccccc3C2C1 (stereo unspecified) [praziquantel] 2.27
CN(C(=O)C(Cl)Cl)c1ccc(OC(=O)c2ccco2)cc1 [Diloxanide Furoate] 1.76
CN(C)CCOC(C)(c1ccccc1)c1ccccn1 (stereo unspecified) [Doxylamine Succinate] 1.56
C=CCNC(N)=S [Allylthiourea] 1.5
CC[C@H](C)[C@H](N)C1=N[C@H](C(=O)N[C@@H](CC(C)C)C(=O)N[C@H](CCC(=O)O)C(=O)N[C@H](C(=O)N[C@H]2CCCCNC(=O)[C@H](CC(N)=O)NC(=O)[C@@H](CC(=O)O)NC(=O)[C@H](Cc3cnc[nH]3)NC(=O)[C@@H](Cc3ccccc3)NC(=O)[C@H]([C@@H](C)CC)NC(=O)[C@@H](CCCN)NC2=O)[C@@H](C)CC)CS1 [Bacitracin] ({Ileψ(thiazoline)Cys}-L[dE]IK[dOrn]I[dF]H[dD]N; lactam 4-C) 1.46
